Values of other authors as cited in US5603963A, “Method for the treatment of retroviral diseases such as acquired immune deficiency syndrome utilizing (pseudo)halogen complexes of gold(1)” (priority 1994, dated 1997).
At least one structure is not confirmed: it was looked up by name or label, or the drawing left a doubt.

Test system: AIDS
Conditions: cited from earlier work

O=c1[nH]cnc2c1ncn2[C@H]1CC[C@@H](CO)O1 [DDI, dideoxyinosine]
effectiveness in slowing the progress of the disease: effective in slowing the progress of the disease
